Data from PubChem BioAssay AID504467 (National Center for Advancing Translational Sciences (NCATS), 2011).
Screen size: about 330,000 compounds; about 7,700 (2.3%) were called active. The inconclusive results got no clear call from the source; some entries with a clear call stand among them for comparison. Calls follow the shape of the dose curve; as a rule, active = well fitted inhibition curve with a large enough effect; inconclusive = small, poorly fitted or top-dose-only effect, or effect the other way; inactive = flat fitted curve, though single readings scatter. A potency beside an inconclusive call is a rough fit, not a confirmed value.

Assay: qHTS screen for small molecules that inhibit ELG1-dependent DNA repair in human embryonic kidney (HEK293T) cells expressing luciferase-tagged ELG1; also: nearly all actives have a fitted effect of over 55% in size
Conditions: HEK293T ELG1-luciferase reporter, luminescence, 16 h, DNA damage induced by 5-fluorouridine; series mostly up to 46.1 µM
Summary of the method: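 5-Fluorouridine DNA damage + compound/DMSO, 2,000 cells/well, 16 h, 37 °C/5% CO2. ONE-Glo, 30 min RT, luminescence. Readout = decrease in reporter signal.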
Potency is read from the fitted curve at half-maximal effect.

Which Potency does the source give for O=C(Nc1nc(-c2ccc(Br)cc2)cs1)c1cccnc1 here?
The Potency was “inactive”.

For O=C(CC1NCCNC1=O)Nc1ccc(Oc2ccccc2)cc1 (configuration not stated), which Potency is on record?
The Potency was inconclusive: 29.1 µM [activator, single point].

With COc1ccc(S(=O)(=O)n2ccc(-c3ccc4c(c3)CCC(C)(C)O4)n2)cc1 as the compound, how does the Potency read?
Its Potency is inconclusive: 29.1 µM [inhibitor, single point].

With CCC(=O)NC(Nc1cc(C)ccn1)(C(F)(F)F)C(F)(F)F as the compound, how does the Potency read?
The Potency was inconclusive: 16.4 µM [inhibitor, single point].

Which Potency does the source give for O=C(NCCCc1ccccc1)c1ccccc1O here?
The Potency was inconclusive: 29.1 µM [inhibitor, single point].

With Cc1ccnc(N2C(=O)c3ccccc3C2Nc2cccc(C)c2C)c1 (configuration not stated) as the compound, how does the Potency read?
Its Potency is inconclusive: 18.4 µM [activator, single point].

Which Potency does the source give for O=C(Nc1ccc(F)cc1)Nc1nnc(-c2ccncc2)s1 here?
The Potency was inconclusive: 10 µM [inhibitor, partial curve, poor fit].

Which Potency does the source give for COC(c1ccccc1)c1nnc(CCC(=O)NC2C3CC4CC(C3)CC2C4)o1 (configuration not stated) here?
The Potency was “inactive”.

Which Potency does the source give for O=C(NCCN1CCC(Cc2ccccc2)CC1)C1CCN(S(=O)(=O)N2CCC3(CC2)OCCO3)CC1 here?
Its Potency is “inactive”.

With Cc1sc2ncnc(SCC(=O)c3cccs3)c2c1C as the compound, how does the Potency read?
Its Potency is inconclusive: 20.6 µM [activator, partial curve].

Which Potency does the source give for C[C@H]1O[C@@H](O[C@H]2CC[C@@]3(C)C(CC[C@]4(C)C3C=CC3=C5CC(C)(C)CC[C@]5(CO)[C@H](O)C[C@]34C)[C@]2(C)CO)[C@H](O)[C@@H](O[C@@H]2O[C@H](CO)[C@@H](O)[C@H](O)[C@H]2O)[C@H]1O (some centres not stated) here?
Its Potency is “inactive”.

For COc1ccc(-c2nnc(SCc3nnc(-c4ccccc4)o3)n2-c2ccccc2)cc1, which Potency is on record?
Its Potency is “inactive”.

With Cc1ccc(SCCC(=O)NC(C)C)cc1 as the compound, how does the Potency read?
Its Potency is inconclusive: 23.1 µM [activator, partial curve, poor fit].

With O=C1CN(C(=O)COC(=O)/C=C/c2ccc(OC(F)F)cc2)c2ccccc2N1 as the compound, how does the Potency read?
Its Potency is inconclusive: 18.4 µM [inhibitor, single point].

Which Potency does the source give for CNC(=S)NNC(=O)c1sccc1OCc1cccc(C(F)(F)F)c1 here?
Its Potency is inconclusive: 29.1 µM [activator, single point].

With CC(c1ccco1)N(C(=O)c1cccs1)c1ccccn1 (configuration not stated) as the compound, how does the Potency read?
Its Potency is “inactive”.

For Cn1c(SCC(=O)NCC2CCCO2)ncc(C(=O)Nc2ccc(F)cc2)c1=O (configuration not stated), which Potency is on record?
Its Potency is inconclusive: 25.9 µM [activator, partial curve].

For CCCN(C(=O)CSc1nc2ccccc2n1CC)C1CCS(=O)(=O)C1 (configuration not stated), which Potency is on record?
The Potency was inconclusive: 5.8 µM [inhibitor, partial curve].

Which Potency does the source give for CC(C)(C)c1ccc(C(=O)NCC(=O)OCC(=O)Nc2nc(-c3ccc(F)cc3)cs2)cc1 here?
Its Potency is inconclusive: 23.1 µM [activator, partial curve].

Which Potency does the source give for CCOCC(=O)Nc1ccc(Br)c(C)c1 here?
Its Potency is inconclusive: 23.1 µM [activator, partial curve].

For c1coc(CNc2nc3sc4c(c3c3ncnn23)CCCC4)c1, which Potency is on record?
Its Potency is inconclusive: 20.6 µM [activator, single point].

For COc1ccc(NC(=O)/C(Cl)=C(/Cl)S(=O)Cc2ccc(C)cc2)cn1 (configuration not stated), which Potency is on record?
Its Potency is inconclusive: 6.51 µM [inhibitor, full curve, poor fit].

For CCc1nc2c(sc3nc4c(cc32)COC(C)(C)C4)c(=O)n1CCN(CC)CC, which Potency is on record?
The Potency was inconclusive: 8.2 µM [activator, partial curve, poor fit].

With O=C(CC1SC(N2CCOCC2)=NC1=O)Nc1ccccc1F (configuration not stated) as the compound, how does the Potency read?
Its Potency is inconclusive: 18.3 µM [activator, single point].

For CC(=O)N/C(=C/c1ccc(OS(=O)(=O)c2ccc(C)cc2)cc1)C(=O)Nc1ccc(C(=O)O)cc1, which Potency is on record?
Its Potency is inconclusive: 23.1 µM [activator, single point].

With NS(=O)(=O)c1ccc(NC(=S)N2CCc3ccccc32)cc1 as the compound, how does the Potency read?
The Potency was “inactive”.

For Cc1ccc([N+](=O)[O-])c(OCCN2C(=O)NC(C)(C)C2=O)c1, which Potency is on record?
Its Potency is “inactive”.

For O=C(NCc1ccccc1Cl)C1CCCN(S(=O)(=O)c2cccc3nsnc23)C1 (configuration not stated), which Potency is on record?
The Potency was inconclusive: 20.6 µM [inhibitor, single point].

Which Potency does the source give for CCn1c(=O)c([N+](=O)[O-])c(N2CCN(Cc3ccc4c(c3)OCO4)CC2)c2ccccc21 here?
Its Potency is active: 14.6 µM.

Which Potency does the source give for NC(=O)c1sc2nc3c(cc2c1N)CCC3 here?
Its Potency is inconclusive: 23.1 µM [activator, single point].

With COC(=O)C1CCN(c2ccc([N+](=O)[O-])cc2)CC1 as the compound, how does the Potency read?
The Potency was “inactive”.

With Cc1ccc(-c2csc3ncnc(SCC(=O)NCc4ccc5c(c4)OCO5)c23)cc1 as the compound, how does the Potency read?
Its Potency is inconclusive: 29.1 µM [inhibitor, single point].

With COc1ccc2nc(C)cc(SCC(=O)N/N=C/c3cccc4ccccc34)c2c1 as the compound, how does the Potency read?
The Potency was inconclusive: 1.03 µM [inhibitor, partial curve, poor fit].

Which Potency does the source give for COC(=O)c1cn(C(=O)c2cc(C)cc(C)c2)c2ccccc12 here?
Its Potency is “inactive”.

Which Potency does the source give for CCOC(=O)C1(C)C=C(Nc2ccccc2)C(=O)N1c1ccccc1 (configuration not stated) here?
Its Potency is inconclusive: 32.6 µM [inhibitor, partial curve, poor fit].

Which Potency does the source give for COc1cc(NC(=O)CCc2nnc3ccc(N4CCC5(CC4)OCCO5)nn23)cc(OC)c1 here?
The Potency was inconclusive: 23.1 µM [inhibitor, partial curve, poor fit].

With Cc1cccc(NC(=S)NC(C)C(c2ccccc2)N2CCN(C)CC2)c1C (configuration not stated) as the compound, how does the Potency read?
Its Potency is inconclusive: 29.1 µM [activator, partial curve, poor fit].

Which Potency does the source give for CC(=O)Nc1ccccc1C(=O)C(=O)Nc1ccc(C)c(C)c1 here?
Its Potency is inconclusive: 16.4 µM [activator, partial curve].

Which Potency does the source give for Cc1nc2cc(-c3ccccc3)nn2c(C)c1CCC(=O)NCc1ccco1 here?
Its Potency is inconclusive: 32.6 µM [inhibitor, single point].

Which Potency does the source give for O=c1[nH]c2cccnc2c2ccsc12 here?
The Potency was inconclusive: 16.4 µM [activator, single point].

With COc1cccc(NC(=O)CN2CCN(c3nc(-c4cccc(OC)c4)cs3)CC2)c1 as the compound, how does the Potency read?
The Potency was inconclusive: 25.9 µM [inhibitor, single point].

For O=C(O)c1cccc(Nc2ncnc3c2cnn3-c2ccccc2)c1, which Potency is on record?
The Potency was inconclusive: 3.66 µM [activator, full curve].

Which Potency does the source give for O=C(CSc1nnc(-c2ccc(Br)o2)n1Cc1ccccc1)c1ccccc1F here?
The Potency was inconclusive: 14.6 µM [inhibitor, partial curve].

With COc1ccc(CC(=O)Nc2cccc(C(=O)O)c2C)cc1 as the compound, how does the Potency read?
Its Potency is inconclusive: 29.1 µM [activator, single point].

For COc1cc2c(cc1OC)CN(C(=O)CSc1ccccc1C)CC2, which Potency is on record?
Its Potency is “inactive”.

For CC(C)c1nc2oc3ccccc3c(=O)c2c(=O)n1-c1ccccc1, which Potency is on record?
The Potency was inconclusive: 4.11 µM [activator, partial curve].

For COc1ccccc1NC(=O)c1ccc2c(c1)N(CC#N)C(=O)C(C)(C)O2, which Potency is on record?
The Potency was “inactive”.

For O=C(CSc1nc2c(sc3ccccc32)c(=O)n1Cc1ccco1)NCC1CCCO1 (configuration not stated), which Potency is on record?
The Potency was inconclusive: 35.5 µM [inhibitor, single point].

For Cc1ccccc1CN1CCSc2sccc2C1=O, which Potency is on record?
Its Potency is “inactive”.

For N#Cc1c(-c2ccc(Cl)cc2)c(C#N)c(=O)n(N)c1N, which Potency is on record?
Its Potency is inconclusive: 16.4 µM [activator, partial curve, poor fit].

Which Potency does the source give for CNC(=O)c1nn(-c2ccc(C)cc2)ccc1=O here?
Its Potency is inconclusive: 29.1 µM [activator, partial curve, poor fit].

For CC1CC(C)CN(C(=O)COC(=O)/C=C/c2ccco2)C1 (configuration not stated), which Potency is on record?
The Potency was inconclusive: 18.3 µM [activator, partial curve, poor fit].

With CCCc1cc(C(=O)N2CCCC(C(=O)c3cccc4ccccc34)C2)n(C)n1 (configuration not stated) as the compound, how does the Potency read?
Its Potency is inconclusive: 29.1 µM [inhibitor, single point].

Which Potency does the source give for CCOc1ccc(S(=O)(=O)Nc2ccc3c(c2)OCO3)cc1 here?
Its Potency is “inactive”.

For COCCN(C(=O)c1ccc(C#N)cc1)c1c(N)n(Cc2ccccc2)c(=O)[nH]c1=O, which Potency is on record?
The Potency was inconclusive: 11.2 µM [activator, single point].

Which Potency does the source give for CCOC(=O)C1=C(CSc2nccn2C)NC(=O)NC1c1cc(C)ccc1C (configuration not stated) here?
The Potency was “inactive”.

With CCN(CC(=O)Nc1cc(S(=O)(=O)N2CCOCC2)ccc1Cl)Cc1ccccc1 as the compound, how does the Potency read?
Its Potency is active: 18.3 µM.

For Cn1c(C(=O)N2CCCC(Nc3ccc(F)cc3)C2)cc2ccccc21 (configuration not stated), which Potency is on record?
Its Potency is “inactive”.

With Cc1ccc(C2=NN(C(=O)c3ccccc3F)C(c3ccccc3F)C2)cc1 (configuration not stated) as the compound, how does the Potency read?
The Potency was inconclusive: 0.259 µM [inhibitor, partial curve, poor fit].

For Cc1ccccc1-c1nc(CN(Cc2c(C)nn(C)c2C)C2CC2)c(C)o1, which Potency is on record?
The Potency was inconclusive: 13 µM [inhibitor, partial curve, poor fit].

For COc1cc(C)nc2nc(SCc3ccccc3)nn12, which Potency is on record?
The Potency was inconclusive: 29.1 µM [activator, partial curve, poor fit].

For Cc1ccc(NC(=O)N2CCCC2C(=O)Nc2ccc3c(c2)OCCO3)cc1 (configuration not stated), which Potency is on record?
The Potency was “inactive”.

Which Potency does the source give for CCCSc1nnc(N2C(=O)C(O)=C(C(=O)c3ccco3)C2c2ccccc2F)s1 (configuration not stated) here?
Its Potency is “inactive”.

With CCS(=O)(=O)N1Cc2ccccc2CC1C(=O)NC(C)C12CC3CC(CC(C3)C1)C2 (configuration not stated) as the compound, how does the Potency read?
The Potency was “inactive”.

Which Potency does the source give for CCn1c(-c2ccco2)nc2ccccc21 here?
Its Potency is inconclusive: 20.6 µM [activator, partial curve].

With COc1ccccc1N1CCN(C(=O)NCc2ccc(Cl)cc2)CC1 as the compound, how does the Potency read?
Its Potency is “inactive”.

Which Potency does the source give for CCOC(=O)c1oc2ccc(S(=O)(=O)n3nc(-c4cc(OC)c(OC)c(OC)c4)cc3N)cc2c1C here?
Its Potency is inconclusive: 9.2 µM [inhibitor, partial curve, poor fit].
